Reference: patent US20230293699A1, “USE OF A BORON CLUSTER AS TRANSMEMBRANE CARRIER” (CONSTRUCTOR UNIVERSITY BREMEN GGMBH, priority 2020, published 2023)
At least one read-out could not be matched to a standard name with certainty.

System: HeLa cells
Assay: HeLa cell viability with MMAF and B1
Format: cell-based
Conditions: MMAF in presence vs absence of B1 (0, 5, 10 μM)

Substance: B12Br12^2−
- lowering of the IC50 value of MMAF: > 2 factor
